Results reported in the supplement of paper PMC3334620.
Whole data set: some 33,000 sequences, median “E-score (-0.5 to 0.5)” near -0.0034, cut for the highest 2% near 0.25. The list shows a part of the results.

molecular target: T1, Yap3 (UniProt P38749); test: PBM E-score (8-mer binding enrichment) (E-score (-0.5 to 0.5)); higher = stronger / more preferred TF binding; conditions: protein concentration: 100 nM; construct: GST-full length
T1 sequence: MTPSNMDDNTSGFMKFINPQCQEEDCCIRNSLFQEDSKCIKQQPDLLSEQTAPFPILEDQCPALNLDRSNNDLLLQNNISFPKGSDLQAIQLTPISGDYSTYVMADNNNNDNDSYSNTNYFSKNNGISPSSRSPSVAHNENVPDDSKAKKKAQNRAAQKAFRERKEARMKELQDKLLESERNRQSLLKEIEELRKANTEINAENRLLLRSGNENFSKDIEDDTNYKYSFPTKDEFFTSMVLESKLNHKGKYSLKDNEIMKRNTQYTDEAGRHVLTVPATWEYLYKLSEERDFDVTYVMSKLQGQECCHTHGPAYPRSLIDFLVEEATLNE
Procedure, shortened: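 GST-tagged yeast TFs (full-length or DNA-binding domain) were made by PURExpress in vitro transcription/translation and applied at about 100-200 nM to universal all-10-mer Agilent arrays. The arrays were made double-stranded by primer extension, on fresh or once-stripped slides. Bound protein was detected with fluorescent anti-GST, and scans were normalised with masliner. Each ungapped eight-base word, pooled with its reverse complement, received an E-score (modified Wilcoxon-Mann-Whitney statistic) from the Universal PBM Analysis Suite.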

Row | Sequence | PBM E-score
1 | TACGACTA | 0.0834
2 | GCCACTTA | 0.0165
3 | CAGCATAC | -0.0638
4 | CCCCACTA | -0.135
5 | CTATGCGA | -0.187
6 | CCTTGAGA | 0.13
7 | AACTTAAT | 0.198
8 | ACATAGTA | 0.0479
9 | AACATATG | 0.16
10 | AGGGTAAA | 0.121
11 | CCAATCAA | 0.0581
12 | CCCGTGCG | -0.131
13 | GGCTAGCA | -0.0371
14 | ACCAGATC | -0.0474
15 | ATAATCAT | 0.344
16 | CATGACCA | 0.117
17 | GAGTGTAA | -0.0811
18 | GAGCTCGC | -0.0307
19 | AGGGAACC | -0.192
20 | CGATCCTA | -0.0116
21 | ACAACGCG | 0.0663
22 | AAGGCGGC | -0.325
23 | AGGGCAAT | -0.122
24 | CCAGTATC | -0.0113
25 | AAGGAAAA | 0.156

Row | Sequence | PBM E-score
26 | CTTGCCCC | -0.225
27 | ATATCTTC | 0.222
28 | GAATGGGA | -0.11
29 | GATCGTCC | -0.0579
30 | ACTACGTC | -0.0702
31 | GCGCAGTA | 0.109
32 | AGAACAGG | -0.157
33 | CATAATCC | 0.0889
34 | TTGTTAAA | -0.0474
35 | AAGCACCC | -0.0712
36 | CACGGTTC | -0.281
37 | CCGAATTA | -0.0509
38 | ATCGAACG | -0.00405
39 | AAATATGA | 0.224
40 | ATGACGCC | -0.074
41 | ACCTACCT | -0.0402
42 | GGTGTCGA | 0.0463
43 | CTGAGGAC | -0.0551
44 | ACATCTGC | -0.128
45 | AAGTGTCG | -0.0231
46 | CGTCGGTC | -0.0654
47 | ATCCACAC | -0.0157
48 | TACTTCCA | 0.137
49 | GATGATCA | 0.0201
50 | GCCATACA | 0.0174

Row | Sequence | PBM E-score
51 | CGCGCTAG | 0.0524
52 | GAGCACGA | -0.0358
53 | ACTAATCG | 0.222
54 | AGCTAGAT | 0.0423
55 | GGCCGTAA | 0.022
56 | ATAGGAGA | -0.198
57 | TAGGTTCA | 0.02
58 | CCCCTTGA | 0.016
59 | GTTAAGCA | 0.0686
60 | CCGGAATA | 0.0462
61 | ATCAAATG | 0.0579
62 | GCAGACAC | 0.0149
63 | GTTAGCTA | -0.0703
64 | CGGCATGC | 0.0617
65 | AGAATGCA | 0.11
66 | TGCCTACA | 0.0232
67 | ACTAGGGG | -0.199
68 | AATGTAAA | 0.231
69 | AGGTATAA | 0.0868
70 | CGTCGTGC | 0.0894
71 | GTGGTTAA | 0.14
72 | GCGGGGAC | -0.0993
73 | CACGCATG | -0.184
74 | AGATCGTG | -0.00676
75 | AAGGCCCA | -0.135

Pulled one by one from above, seven records:
Row | Sequence | PBM E-score
56 | ATAGGAGA | -0.198
54 | AGCTAGAT | 0.0423
67 | ACTAGGGG | -0.199
66 | TGCCTACA | 0.0232
75 | AAGGCCCA | -0.135
57 | TAGGTTCA | 0.02
55 | GGCCGTAA | 0.022

A different layout for part of the listing above.
Row	Sequence	PBM E-score
70	CGTCGTGC	0.0894
71	GTGGTTAA	0.14
72	GCGGGGAC	-0.0993

Continuation.

Row | Sequence | PBM E-score
76 | CCTGGTCA | -0.0725
77 | AATCATCT | -0.0336
78 | ACCTAGTA | -0.119
79 | AAGATAAG | 0.0204
80 | CACGGCGG | -0.206
81 | CTATACGA | -0.0189
82 | ACCTATCA | -0.0173
83 | ATACGCAT | 0.134
84 | ATATGCTC | 0.0426
85 | TTCTGCAA | 0.121
86 | GGCCTTAA | 0.116
87 | TCTGCCAA | -0.133
88 | CCATATGG | 0.0953
89 | AAGCAGGA | 0.0482
90 | CTGAGTCA | 0.222
91 | AACCAAGT | 0.119
92 | ATGAGAGA | 0.136
93 | ATGTGACC | -0.136
94 | GGGCTGTA | -0.239
95 | TACCGGTA | 0.115
96 | AATGCGGA | 0.0814
97 | AGACGATA | 0.0424
98 | AGACCTGC | -0.25
99 | AGTCTGCC | -0.249
100 | AACCGAAA | 0.0863

Row | Sequence | PBM E-score
101 | AAGACTTA | -0.0694
102 | CCCCCAGC | -0.372
103 | CATACCGA | -0.0505
104 | GGTCCCAA | -0.151
105 | CGACTGGA | -0.0599
106 | CTCGACTC | -0.00468
107 | GAAATTCC | 0.0452
108 | ATGGTAAG | -0.0982
109 | ACCTACAA | 0.0492
110 | AAATAGTT | 0.218
111 | AACGCGCC | -0.0619
112 | CAAACATC | 0.0509
113 | ACAGGTAC | -0.0601
114 | TATCAGGA | 0.00895
115 | GCGGACGC | -0.218
116 | CCCATTGC | -0.064
117 | ACAGTTCA | 0.105
118 | GGATGGAC | -0.102
119 | CATTCTGA | 0.141
120 | CTACCCGC | -0.184
121 | CCTCCCGA | -0.338
122 | GAACGATC | 0.0575
123 | TCACTGGA | -0.0545
124 | GTCTGTAA | -0.0725
125 | ATCACTGC | 0.0769

2 entries from above, as a markdown table:

| Row | Sequence | PBM E-score |
| --- | --- | --- |
| 70 | CGTCGTGC | 0.0894 |
| 105 | CGACTGGA | -0.0599 |

Remaining list, next part:

Row | Sequence | PBM E-score
126 | CGCCTCCA | -0.0788
127 | GCGCTCAA | -0.131
128 | CACCCTAA | 0.0377
129 | TAAATGAA | 0.117
130 | GGCCCAAC | -0.24
131 | ACCACATG | 0.17
132 | CCGGAACA | -0.0746
133 | GCTCTGAC | -0.248
134 | CTGCCAAC | -0.105
135 | ACCCCGTC | -0.236
136 | ACTTAGGC | -0.212
137 | AGTTAAAC | 0.15
138 | AACCATGC | 0.132
139 | ACGGCCAG | -0.115
140 | AAAGTCAA | 0.0668
141 | AAATCAAT | 0.199
142 | CGGCCCCG | -0.423
143 | AGGGTTAC | -0.219
144 | AGTCCAGG | -0.167
145 | CAACCGCG | 0.323
146 | AACAAGAT | 0.154
147 | CGATGCAC | -0.124
148 | CTATCTAA | 0.0306
149 | GCAGGCAA | -0.0308
150 | AGGGTTTC | -0.0867

Row | Sequence | PBM E-score
151 | GCTGTCAC | -0.151
152 | CGGTTCCA | -0.161
153 | GATCACAC | -0.0519
154 | CACTCTAG | -0.0617
155 | CCCGGAGG | -0.417
156 | ACAACGTA | 0.0865
157 | ACACCGCC | -0.166
158 | CCTTATTC | 0.0232
159 | CTGAAAAA | -0.195
160 | AGAACGGG | -0.0233
161 | ACCTGCAC | -0.0683
162 | GGGGGAAC | -0.35
163 | CATATCGC | 0.0128
164 | CCCGAGAC | -0.246
165 | AAACCACG | -0.0371
166 | GGTTACAC | -0.122
167 | GAAATTGC | 0.101
168 | ACACTCGC | 0.215
169 | AGGACTGA | -0.104
170 | AGTCATTA | 0.0463
171 | CGCTAAGC | -0.0259
172 | ACAGAGAC | 0.0186
